Values from PubChem BioAssay AID686938 (Drosophila RNAi Screening Center, 2013)

- Aim: 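Fly genes required for calcium entry once internal stores are emptied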 (primary screen)
- System: Drosophila S2R+ cells
- Reagents: long dsRNA against Drosophila genes, about 0.25 µg dsRNA per well, roughly 10,000 cells
- Timing: 5 days of knock-down before the calcium assay
- Challenge: thapsigargin (SERCA pump blocker) to empty calcium stores; entry signal taken 4 min after adding it
- Measurement: 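Duplicate raw fluo-4 intensities per well from a plate reader, at rest and four minutes after thapsigargin emptied calcium stores; entry-to-rest ratio filled for only some wells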
- Direction: calcium entry signal: higher = stronger calcium signal after store depletion; entry to resting ratio: higher = more calcium entry relative to resting level; resting calcium signal: higher = higher resting calcium signal
- Rule for the call: 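Hit if the duplicate-averaged plate z-score for entry over resting signal is under −3; wells with weak total dye signal (Fmax z < −2) or more than 5 off-targets removed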
- Meaning of the calls: active = strongly reduced calcium entry; inactive = no strong reduction
In all, the deposit lists about 23,000 reagents; this is a random part of those with a known target gene and a result. Over the whole deposit, 75 (0.33%) got an active call. 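Raw plate signals without normalisation; calls rest on plate z-scores that were not deposited; ratio present for only 364 wells.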 Reagents against one gene are numbered here. A plus sign joins genes that one reagent is predicted to hit. Reagent sequences are not shown. Not stated in the record: the dose of the treatment.

The first 4 entries as a preview:
gene knocked down,reagent,"calcium entry signal, replicate 1 (fluorescence units)","calcium entry signal, replicate 2 (fluorescence units)",entry to resting ratio,"resting calcium signal, replicate 1 (fluorescence units)","resting calcium signal, replicate 2 (fluorescence units)",call
CG3528,1,3.42e7,4.04e7,,1.61e7,1.67e7,inactive
CG10973,1,5.09e7,3.96e7,,3.24e7,1.69e7,inactive
wupA,1,3.88e7,3.91e7,,1.92e7,1.79e7,inactive
wupA,2,2.83e7,2.96e7,,1.40e7,1.29e7,inactive

Results, from the start:
gene knocked down,reagent,"calcium entry signal, replicate 1 (fluorescence units)","calcium entry signal, replicate 2 (fluorescence units)",entry to resting ratio,"resting calcium signal, replicate 1 (fluorescence units)","resting calcium signal, replicate 2 (fluorescence units)",call
CG3528,1,3.42e7,4.04e7,,1.61e7,1.67e7,inactive
CG10973,1,5.09e7,3.96e7,,3.24e7,1.69e7,inactive
wupA,1,3.88e7,3.91e7,,1.92e7,1.79e7,inactive
wupA,2,2.83e7,2.96e7,,1.40e7,1.29e7,inactive
CG7653,1,5.12e7,4.02e7,,2.24e7,1.69e7,inactive
CG3597,1,3.54e7,3.02e7,,1.69e7,1.37e7,inactive
sprt,1,2.78e7,3.33e7,,1.26e7,1.59e7,inactive
Sem1,1,2.35e7,2.46e7,,1.44e7,1.47e7,inactive
lncRNA:CR41601,1,3.00e7,4.39e7,,1.44e7,2.32e7,inactive
PIG-F,1,2.78e7,4.68e7,,1.28e7,2.03e7,inactive
CG15012,1,5.13e7,3.72e7,,3.46e7,1.69e7,inactive
dmpd,1,4.61e7,3.99e7,,1.87e7,1.90e7,inactive
CG12231,1,4.65e7,4.22e7,,2.36e7,1.93e7,inactive
CG15456,1,4.53e7,4.66e7,,2.13e7,1.94e7,inactive
FASN1,1,2.33e7,,,1.83e7,,inactive
CG15254,1,4.36e7,2.97e7,,1.88e7,1.54e7,inactive
CG15254,2,3.31e7,3.48e7,,1.89e7,1.66e7,inactive
ago,1,5.14e7,3.78e7,,3.55e7,1.48e7,inactive
Cep290,1,3.69e7,4.08e7,,1.90e7,1.87e7,inactive
CG6290,1,5.19e7,5.15e7,,2.40e7,2.16e7,inactive
CG4186,1,2.82e7,5.48e7,,1.41e7,2.18e7,inactive
CG8492,1,2.62e7,4.99e7,,1.31e7,2.25e7,inactive
CG8492,2,4.51e7,3.07e7,,2.49e7,1.42e7,inactive
CG15130,1,5.10e7,4.86e7,,2.45e7,2.10e7,inactive
obst-A,1,2.94e7,3.74e7,,1.38e7,1.64e7,inactive
CG7786,1,4.44e7,5.81e7,,1.78e7,2.51e7,inactive
CG3819,1,1.96e7,3.34e7,,1.16e7,1.51e7,inactive
mEFTs,1,5.25e7,,,2.22e7,,inactive
BoYb,1,4.29e7,5.04e7,,1.95e7,3.42e7,inactive
CG30286,1,3.74e7,4.75e7,,1.83e7,2.14e7,inactive
CG32121,1,4.30e7,4.39e7,,2.10e7,2.22e7,inactive
CG6153,1,3.98e7,,,2.05e7,,inactive
RpLP0,1,2.37e7,3.65e7,,1.26e7,1.82e7,inactive
RpLP0,2,1.15e7,2.44e7,,7.97e6,1.40e7,inactive
hfp,1,2.12e7,2.72e7,,1.44e7,1.57e7,inactive
hfp,2,3.05e7,5.16e7,,1.58e7,2.18e7,inactive
hfp,3,3.10e7,2.94e7,,1.69e7,1.22e7,inactive
CG11672,1,4.46e7,3.73e7,,2.16e7,1.96e7,inactive
HDAC4,1,4.02e7,4.61e7,,1.95e7,2.10e7,inactive
Der-2,1,3.32e7,5.07e7,,1.76e7,6.57e7,inactive
4E-T,1,5.53e7,5.27e7,,2.32e7,2.46e7,inactive
4E-T,2,3.40e7,5.68e7,1.9,1.80e7,2.40e7,inactive
iav,1,3.30e7,4.13e7,,1.66e7,1.96e7,inactive
CG12398,1,2.11e7,2.51e7,,1.35e7,1.27e7,inactive
lncRNA:CR34024,1,3.92e7,2.41e7,,1.69e7,1.36e7,inactive
Polr2J,1,4.50e7,3.85e7,,2.07e7,1.61e7,inactive
CG34202,1,2.39e7,3.75e7,,1.12e7,1.62e7,inactive
CG31189,1,3.82e7,4.35e7,,6.29e7,2.13e7,inactive
sca,1,3.82e7,3.64e7,,1.97e7,1.54e7,inactive
Gr36c,1,3.58e7,2.57e7,,1.65e7,1.31e7,inactive
CG14273,1,3.32e7,5.26e7,,1.72e7,2.22e7,inactive
Tsp42En,1,2.87e7,4.06e7,,1.41e7,1.68e7,inactive
CG34203,1,3.43e7,6.09e7,,1.54e7,2.57e7,inactive
Unc-115b + p24-2 + Unc-115a,1,3.09e7,2.96e7,,1.50e7,1.50e7,inactive
CG14354,1,4.37e7,4.12e7,,2.13e7,1.79e7,inactive
CG17344,1,6.87e7,5.61e7,,3.35e7,2.30e7,inactive
Pgm1,1,3.75e7,4.34e7,,1.83e7,2.91e7,inactive
CG10969,1,2.40e7,3.65e7,,1.30e7,1.68e7,inactive
